Measured values published in the RNAGym collection of RNA variant scans (doi:10.1126/science.aae0568).
Variants at the floor of the assay are shown more often than the library holds them.

B1: tRNA (parent)
chain: GUUCCGUUGGCGUAAUGGUAACGCGUCUCCCUCCUAAGGAGAAGACUGCGGGUUCGAGUCCCGUACGGAACG

Variants of: B1
Test: yeast fitness relative to wild type (ratio to wild type); higher = fitter; tRNA-Arg(CCU), competitive growth, 37 C, YPD
Summary of the method: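 Variants of the tRNA-Arg(CCU) gene were chemically synthesised with a 3% per-site mutation rate across 69 sites and placed at the native genomic locus in Saccharomyces cerevisiae. Six parallel replicates of the pooled strains were competed in YPD at 37°C for 24 hours, and gene amplicons from the start and end populations were read by 100-nucleotide paired-end sequencing. Darwinian fitness relative to wild type was derived from changes in genotype frequencies. Genotypes required ≥ 100 starting reads, and estimates < 0.5 were set to 0.5.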

| Variant | yeast fitness |
| --- | --- |
| C5U U13C C24G U26C A37G U54G A69U | ≤ 0.5 |
| C4A U16C U35G A45U U47C G51A | ≤ 0.5 |
| U7C U8G C30U C49A | ≤ 0.5 |
| U8C G50A A70U | 0.736 |
| A14C U19C A20G G67A | ≤ 0.5 |
| G18C G23A C61U | ≤ 0.5 |
| C27G G52C U54C | ≤ 0.5 |
| A15G A43G | 0.975 |
| C24G A37U C66A | ≤ 0.5 |
| C27A G56C | 0.627 |
| U2A A20G C49U G63C A69U | ≤ 0.5 |
| G12C C30U C66A | ≤ 0.5 |
| A20U A42C C62A | ≤ 0.5 |
| A45C G48C G50A U53C | ≤ 0.5 |
| C24U C31U C49U A70C | 0.643 |
| A14U C24A A40U A43U | ≤ 0.5 |
| G18C A42U G48C G68C A69U | ≤ 0.5 |
| C5U U26G | 0.969 |
| A20G G23C U54A A57C | ≤ 0.5 |
| G51A G52C C66A | ≤ 0.5 |
| C22G A37G G51A | ≤ 0.5 |
| U3A G12A U19A U64C | ≤ 0.5 |
| A14C C22A A37U G63A | ≤ 0.5 |
| U3C C11A C31G G68C | ≤ 0.5 |

| Variant | yeast fitness |
| --- | --- |
| A15G C24G U35G A40G | ≤ 0.5 |
| C30U A45C A57G C62U | ≤ 0.5 |
| A14C G48A G50C | ≤ 0.5 |
| U3C A21G G23A C31U G63C U64A C66G | ≤ 0.5 |
| U2G A20G C33U G39A | ≤ 0.5 |
| U28G C30G | ≤ 0.5 |
| C4A A36U G68C | ≤ 0.5 |
| U2G U3A C5U U7C U8C A20C U35C A37U A57C | ≤ 0.5 |
| A15G C31A A70U | 0.639 |
| C11A U16C U32G A65G | ≤ 0.5 |
| G25A C29A U64C | ≤ 0.5 |
| G25C C31A C55G | ≤ 0.5 |
| G38U C46A | 0.783 |
| C5G C30U U32A C49G | ≤ 0.5 |
| G6A U32A A45G C49G A65C | ≤ 0.5 |
| G10A U64C A69C | ≤ 0.5 |
| G9C C27U U47C C55U C62G A69U | ≤ 0.5 |
| A45G C60G | 0.821 |
| G6C U7A C34U C61U | 0.658 |
| C24G G25C C30G U32C A57U A65U | ≤ 0.5 |
| C5G A15C A40G G52C C55U | ≤ 0.5 |
| A15C G38A U47A C55G C61U | ≤ 0.5 |
| U7A G10U | 0.614 |
| C11A C24U C62A | ≤ 0.5 |

| Variant | yeast fitness |
| --- | --- |
| C5G G9C U53A G58A G68U | ≤ 0.5 |
| C5A C34G A57G A65G C66U | ≤ 0.5 |
| G9C U16G C66G | ≤ 0.5 |
| G44C C61A | 0.583 |
| G9C A14G U26A U32G A70G | ≤ 0.5 |
| U28G C55A C60U | ≤ 0.5 |
| A20U U47C G50A A57U | ≤ 0.5 |
| G23A G38A G67C | ≤ 0.5 |
| A14G U54C A70G | 0.535 |
| C5G U13C C62A | ≤ 0.5 |
| A14G A20U C31A G52A C66U | ≤ 0.5 |
| U8C C29A U54A | ≤ 0.5 |
| G9A A36U C55G G58C | ≤ 0.5 |
| C29G C49A U64A | ≤ 0.5 |
| C5G U35A C62U | ≤ 0.5 |
| A14G U35C A57G | ≤ 0.5 |
| U8C C24G G38C U53G | 0.635 |
| U2A A20C A37G G52A U53A | ≤ 0.5 |
| U2C C27A U59A | ≤ 0.5 |
| G18C C29G C34U G56U G67A A70C | ≤ 0.5 |
| C4U A14C C61U A65U | ≤ 0.5 |
| U8G U16A A36C | ≤ 0.5 |
| A14U U26C C27A C33G A45C C46A C62U | ≤ 0.5 |
| C22G C29A G68C | ≤ 0.5 |

| Variant | yeast fitness |
| --- | --- |
| U47C G68U | 1.1 |
| G6A A15C A20U A57U | ≤ 0.5 |
| U3G C11U C62G | ≤ 0.5 |
| C5U C30U C34A A36G | ≤ 0.5 |
| A15C C24A C66U | ≤ 0.5 |
| U2G A57C A70C | ≤ 0.5 |
| C5U C11G C29A C46A G68C | ≤ 0.5 |
| C29A C31U A43C G44C A65U | ≤ 0.5 |
| C5G C24G U26C A37G U54G C61G | ≤ 0.5 |
| C4U G23C C49G G58C | ≤ 0.5 |
| C11U C24U C34U C46U | ≤ 0.5 |
| A42C G51A | 0.849 |
| C11U U26G U28C C31U C49A G58C C62U | ≤ 0.5 |
| U2C U3C U13C A14U C46U G50C | ≤ 0.5 |
| G9C C30G U54A | ≤ 0.5 |
| G25A C61A C66A | ≤ 0.5 |
| C29G U35C C55G A57G | ≤ 0.5 |
| G6C U35C U59C | ≤ 0.5 |
| A20C A42C A57U | ≤ 0.5 |
| U16A A20C C22G C24A | ≤ 0.5 |
| C5A U8C G38A C66U | ≤ 0.5 |
| G10C U47C G67C | 0.536 |
| C22U C34A A70U | ≤ 0.5 |
| G9C A14G C34U U64A | ≤ 0.5 |

| Variant | yeast fitness |
| --- | --- |
| G9A G52A | 0.687 |
| A20U A40U C55U A65C A70G | ≤ 0.5 |
| U7A U8A G10C C27G C34G A36G C55U G63A | ≤ 0.5 |
| A21C C22G G67A A69U | ≤ 0.5 |
| G41C G48C A69C | 0.606 |
| G12A C22G A45C A57U C62A | ≤ 0.5 |
| A15C U19C C31U C34U A65C | ≤ 0.5 |
| U8A U13A A14C G56C | ≤ 0.5 |
| U19A A36G C55A G56C | ≤ 0.5 |
| G23A C55G C60A | ≤ 0.5 |
| G12A A20U A45C C60U C61U | ≤ 0.5 |
| C34A U47G C49G C60G | 0.571 |
| C4G U16C U28A A42G C55A C66A | ≤ 0.5 |
| C31U U35C A40G A65U | ≤ 0.5 |
| U13A A40G G56A A57U G68A | ≤ 0.5 |
| A14C C27G C46G G58A A65G | ≤ 0.5 |
| G17A A43G A45G A70C | ≤ 0.5 |
| C5G U8G G68U | ≤ 0.5 |
| G12A G41A G51C | ≤ 0.5 |
| C5G C33U C34U G38A G51A C55A A65U | ≤ 0.5 |
| U2C A15C A36U A65C | ≤ 0.5 |
| U7C U28A C31U C55G C66U | ≤ 0.5 |
| U16C C27G A40G G48A A57C | ≤ 0.5 |
| G10C C29A C33A C61G | ≤ 0.5 |

| Variant | yeast fitness |
| --- | --- |
| G6A G10A A21G U28C | ≤ 0.5 |
| C4G C11G C22U G58C | ≤ 0.5 |
| A14G U16C G18A C27G | ≤ 0.5 |
| U3G C5G A20C G63C | ≤ 0.5 |
| C24U C31G C55A A57U U59C C60U | ≤ 0.5 |
| C4A A20G | 0.859 |
| G9A G39C A42C C49A | ≤ 0.5 |
| C27U C30A G51A | ≤ 0.5 |
| C4G C5U C49A G56A G63C | ≤ 0.5 |
| G10A G58A | 0.767 |
| C29A G41A A43C C66U | ≤ 0.5 |
| C22U C31G A43U C60A A70G | ≤ 0.5 |
| U3G U13G A14C G39C G41A | ≤ 0.5 |
| C11A A20U U28A C31G G39C U47G C49U G67A | ≤ 0.5 |
| U2C C30G U59A A70U | ≤ 0.5 |
| A14G G25A A45G C60G G67A | ≤ 0.5 |
| C5A G17A C46A C55A | ≤ 0.5 |
| C5G A45U A57U | 0.565 |
| U2C U8G A14U G51C A70G | ≤ 0.5 |
| C24G C29G A37G G52A C62U | ≤ 0.5 |
| G23U C27A C46A C49A C55A | ≤ 0.5 |
| A21G A36G G38C G52A | ≤ 0.5 |
| A15G G39C A69C | 0.624 |
| G9C G10C A36U G44A C46G C49U | ≤ 0.5 |

| Variant | yeast fitness |
| --- | --- |
| U28A U64G | 0.709 |
| U3G C11U A14G C62A | ≤ 0.5 |
| U3C C31U A36C A43C G50C A70U | ≤ 0.5 |
| U32C U35A U47C | ≤ 0.5 |
| C31A C34G G56A | ≤ 0.5 |
| U2C A15G G38C U64A G68A A69C | ≤ 0.5 |
| C29U A45C A57G A65U | ≤ 0.5 |
| C5U G10A C22U G39A A57G | ≤ 0.5 |
| A21G A43G U53A A57U A65U | ≤ 0.5 |
| G12A A20C A40U C61A G68A | ≤ 0.5 |
| A14G A42G G51C | ≤ 0.5 |
| G9A C60G C61A G63A | ≤ 0.5 |
| C33G A43G C46A C55G U59C | ≤ 0.5 |
| A37G A42U | 0.787 |
| C5A A20U A21G C55U C61U A65G | ≤ 0.5 |
| A15C C29G C46U C55A G68C | ≤ 0.5 |
| G10A C29G U35G C61U | ≤ 0.5 |
| G10C C24G A42C U53G G67C | ≤ 0.5 |
| U7C C24A | 0.623 |
| C11G A15U C22U A42G C61A | ≤ 0.5 |
| U2G C49G A69C | ≤ 0.5 |
| U8A A14C C31A G41C A43G C49A G56A | ≤ 0.5 |
| A20G C24G C30G | ≤ 0.5 |
